The results in this text go back to paper PMC7555452.

Protein sequences, listed by entry. Tags and fused reporters are not part of them. Lines headed by an entry give the natural chain unless they say otherwise; changes in a name come on top.
UniProt P0A850: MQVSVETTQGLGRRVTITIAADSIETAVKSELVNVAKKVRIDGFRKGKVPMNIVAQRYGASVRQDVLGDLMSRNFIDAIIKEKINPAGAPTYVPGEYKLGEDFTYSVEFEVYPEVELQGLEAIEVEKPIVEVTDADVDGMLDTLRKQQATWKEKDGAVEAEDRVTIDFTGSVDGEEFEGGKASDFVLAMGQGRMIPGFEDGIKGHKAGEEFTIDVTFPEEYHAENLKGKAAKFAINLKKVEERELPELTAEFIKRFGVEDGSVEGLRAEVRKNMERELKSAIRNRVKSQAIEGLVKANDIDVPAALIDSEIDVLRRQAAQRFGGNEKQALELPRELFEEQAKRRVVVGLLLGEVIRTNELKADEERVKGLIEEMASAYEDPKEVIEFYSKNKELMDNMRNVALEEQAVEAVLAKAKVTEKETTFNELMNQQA

The target of the data set is His-tag-Trigger factor (UniProt P0A850). Briefly: EMSA. The conditions noted are these: tag-only control; m6A at position 9; 10 mM Tris-HCl pH 8.0, 150 mM NaCl, 1.0 mM EDTA, 10% glycerol; 5.0 pmol RNA in 20 uL, on ice 30 min; 6% native PAGE, 0.25x TBE, 4 °C; recombinant protein; protein details: His; label: 5'-fluorescein.

The exact form of at least one protein or probe is not confirmed. No signal at the amounts used counts as a negative. At least one verdict was read from the data and is not stated in words by the source.

As to GAAUCCGAACUAGUUCU [SOS3 RNA m6A], the binding result is given as “no binding”.
